Paper PMC6154322, “Anti-Trypanosomatid Elemanolide Sesquiterpene Lactones from Vernonia lasiopus O. Hoffm ^†” (Molecules : A Journal of Synthetic Chemistry and Natural …, 2017)
Values after ≈ are worked out from the molar mass of the structure shown.

Tested on: T. cruzi (amastigotes, Tulahuen C4 strain)
Assay: In vitro activity against T. cruzi amastigotes (Tulahuen C4)
Assay type: cell-based
Settings: Trypanosoma cruzi, Table 1, only one replicate, read-out: IC50 Tcr (crude extracts)

Compound `O=C(Cn1ccnc1[N+](=O)[O-])NCc1ccccc1` [benznidazole] has an IC50 of 0.382 µg/mL (≈ 1.47 µM).
